pIC50: −log10 of the molar value. Some results were stated once for a whole list of compounds, not compound by compound. Some compounds share one range, which may span the group rather than tell each member.
target: T1, HmqD (Burkholderia ambifaria, UniProt Q0B3G0); experiment: In situ IC50 for HmqD inhibition by competitive probe labelling in live E. coli BL21 overexpressing HmqD; type: cell-based; conditions: read-out: IC50 values for HmqD inhibition in living cells, competitive labelling with activity-based probe 1 μM, compound 0.05 to 100 μM, 30 min at 37° C., n=3
T1 sequence (Q0B3G0 1-332): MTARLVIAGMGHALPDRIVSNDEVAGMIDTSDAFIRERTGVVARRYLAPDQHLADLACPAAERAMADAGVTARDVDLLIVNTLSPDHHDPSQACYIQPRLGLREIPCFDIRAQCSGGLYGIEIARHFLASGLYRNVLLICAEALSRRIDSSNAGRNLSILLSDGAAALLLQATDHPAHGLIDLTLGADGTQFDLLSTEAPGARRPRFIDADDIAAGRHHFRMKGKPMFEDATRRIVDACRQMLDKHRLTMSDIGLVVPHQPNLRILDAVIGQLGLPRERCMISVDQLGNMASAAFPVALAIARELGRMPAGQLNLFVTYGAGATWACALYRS

Structure (SMILES)	pIC50
Nc1ccc(I)cc1C(=O)CCl [Formula (7), 1-(2-Amino-5-iodophenyl)-2-chloroethan-1-one]	6.70 to 7.00
Nc1cc2c(cc1C(=O)CCl)OCCO2 [Formula (4)]	6.70 to 7.00
O=C(CCl)c1ccc(F)cc1F [Formula (6)]	6.70 to 7.00

— patent US20210393586A1, “Compounds for Use in the Treatment of Bacterial Infections” (Universität Konstanz, priority 2018, published 2021)
